Common to all, as to assay: co-IP; GFP-Trap_A beads on lysates of HEK-293T cells transfected with one eGFP-tagged construct; lysis in 10 mM Tris/Cl pH 7.5, 150 mM NaCl, 0.5 mM EDTA, 0.5% NP-40; 1 h at 4 °C; co-precipitated endogenous proteins detected by immunoblotting
Test [1] concerns the target eGFP-labeled NPMmutE (human) (UniProt P06748).
The next test deals with eGFP_NPMmutA (human) (UniProt P06748).
In a further test the target is eGFP_Δ117NPMmutA (human) (UniProt P06748).

By UniProt entry, the sequences of proteins in these tests, tags left out. Where a name states a change or a piece, a line headed by the entry shows the natural chain unless it says otherwise.
UniProt P06748: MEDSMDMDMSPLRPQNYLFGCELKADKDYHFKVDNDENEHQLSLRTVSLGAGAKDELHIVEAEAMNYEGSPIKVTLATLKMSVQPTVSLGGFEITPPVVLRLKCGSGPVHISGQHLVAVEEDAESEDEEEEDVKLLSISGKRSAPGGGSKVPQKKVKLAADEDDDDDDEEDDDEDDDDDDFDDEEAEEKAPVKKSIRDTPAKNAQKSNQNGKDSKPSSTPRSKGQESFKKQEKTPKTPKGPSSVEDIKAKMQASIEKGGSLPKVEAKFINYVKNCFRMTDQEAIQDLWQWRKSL

No constants are given. Whether binding was seen depends on the method and setting. Binding seen in cells or lysates may run through a third protein. For part of these data: Binding can be weak; no strength is given.

For the substance “endogenous NPM (HEK-293T) (from UniProt P06748 1-294)”, the binding result in test [1] is listed as “binds”; in the test with eGFP_NPMmutA (human) it was “binds”; in the test with eGFP_Δ117NPMmutA (human), “no binding”.

For the origin of these results see article PMC8269334.
